Drawing on publication PMC4743919, this text covers binding for 3 molecules.

Chains of the proteins cited; added tags and fusions are not shown. Lines headed by an entry give the natural chain unless they say otherwise; changes in a name come on top.
UniProt P32558: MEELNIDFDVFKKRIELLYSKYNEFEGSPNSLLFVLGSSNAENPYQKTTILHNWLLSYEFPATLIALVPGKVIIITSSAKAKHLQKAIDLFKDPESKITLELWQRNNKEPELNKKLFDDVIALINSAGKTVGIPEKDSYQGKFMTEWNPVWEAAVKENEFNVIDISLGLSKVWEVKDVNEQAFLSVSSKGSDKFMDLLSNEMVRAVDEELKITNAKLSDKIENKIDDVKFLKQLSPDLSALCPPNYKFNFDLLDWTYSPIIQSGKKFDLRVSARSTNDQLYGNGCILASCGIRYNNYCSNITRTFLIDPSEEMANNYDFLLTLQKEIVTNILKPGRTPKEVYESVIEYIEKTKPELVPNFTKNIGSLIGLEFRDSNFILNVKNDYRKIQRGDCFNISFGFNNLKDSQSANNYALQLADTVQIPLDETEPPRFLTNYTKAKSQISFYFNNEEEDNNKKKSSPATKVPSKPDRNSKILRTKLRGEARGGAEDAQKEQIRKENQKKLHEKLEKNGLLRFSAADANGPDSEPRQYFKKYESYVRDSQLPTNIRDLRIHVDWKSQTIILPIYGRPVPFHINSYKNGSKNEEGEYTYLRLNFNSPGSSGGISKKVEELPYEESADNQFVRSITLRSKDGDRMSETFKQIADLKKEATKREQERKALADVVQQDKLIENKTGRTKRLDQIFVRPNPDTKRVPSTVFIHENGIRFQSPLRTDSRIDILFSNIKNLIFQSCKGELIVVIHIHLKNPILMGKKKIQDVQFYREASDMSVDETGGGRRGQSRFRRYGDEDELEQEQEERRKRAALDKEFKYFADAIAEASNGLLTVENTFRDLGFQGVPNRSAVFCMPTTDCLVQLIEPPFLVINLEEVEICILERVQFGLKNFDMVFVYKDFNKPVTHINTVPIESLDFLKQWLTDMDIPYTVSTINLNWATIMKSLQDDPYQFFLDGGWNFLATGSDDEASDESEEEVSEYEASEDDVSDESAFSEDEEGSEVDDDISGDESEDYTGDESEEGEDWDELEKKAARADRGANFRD

For test [1], the target named is T1, PA-tagged Mms22 (S. cerevisiae) (UniProt Q06164).
T1 sequence: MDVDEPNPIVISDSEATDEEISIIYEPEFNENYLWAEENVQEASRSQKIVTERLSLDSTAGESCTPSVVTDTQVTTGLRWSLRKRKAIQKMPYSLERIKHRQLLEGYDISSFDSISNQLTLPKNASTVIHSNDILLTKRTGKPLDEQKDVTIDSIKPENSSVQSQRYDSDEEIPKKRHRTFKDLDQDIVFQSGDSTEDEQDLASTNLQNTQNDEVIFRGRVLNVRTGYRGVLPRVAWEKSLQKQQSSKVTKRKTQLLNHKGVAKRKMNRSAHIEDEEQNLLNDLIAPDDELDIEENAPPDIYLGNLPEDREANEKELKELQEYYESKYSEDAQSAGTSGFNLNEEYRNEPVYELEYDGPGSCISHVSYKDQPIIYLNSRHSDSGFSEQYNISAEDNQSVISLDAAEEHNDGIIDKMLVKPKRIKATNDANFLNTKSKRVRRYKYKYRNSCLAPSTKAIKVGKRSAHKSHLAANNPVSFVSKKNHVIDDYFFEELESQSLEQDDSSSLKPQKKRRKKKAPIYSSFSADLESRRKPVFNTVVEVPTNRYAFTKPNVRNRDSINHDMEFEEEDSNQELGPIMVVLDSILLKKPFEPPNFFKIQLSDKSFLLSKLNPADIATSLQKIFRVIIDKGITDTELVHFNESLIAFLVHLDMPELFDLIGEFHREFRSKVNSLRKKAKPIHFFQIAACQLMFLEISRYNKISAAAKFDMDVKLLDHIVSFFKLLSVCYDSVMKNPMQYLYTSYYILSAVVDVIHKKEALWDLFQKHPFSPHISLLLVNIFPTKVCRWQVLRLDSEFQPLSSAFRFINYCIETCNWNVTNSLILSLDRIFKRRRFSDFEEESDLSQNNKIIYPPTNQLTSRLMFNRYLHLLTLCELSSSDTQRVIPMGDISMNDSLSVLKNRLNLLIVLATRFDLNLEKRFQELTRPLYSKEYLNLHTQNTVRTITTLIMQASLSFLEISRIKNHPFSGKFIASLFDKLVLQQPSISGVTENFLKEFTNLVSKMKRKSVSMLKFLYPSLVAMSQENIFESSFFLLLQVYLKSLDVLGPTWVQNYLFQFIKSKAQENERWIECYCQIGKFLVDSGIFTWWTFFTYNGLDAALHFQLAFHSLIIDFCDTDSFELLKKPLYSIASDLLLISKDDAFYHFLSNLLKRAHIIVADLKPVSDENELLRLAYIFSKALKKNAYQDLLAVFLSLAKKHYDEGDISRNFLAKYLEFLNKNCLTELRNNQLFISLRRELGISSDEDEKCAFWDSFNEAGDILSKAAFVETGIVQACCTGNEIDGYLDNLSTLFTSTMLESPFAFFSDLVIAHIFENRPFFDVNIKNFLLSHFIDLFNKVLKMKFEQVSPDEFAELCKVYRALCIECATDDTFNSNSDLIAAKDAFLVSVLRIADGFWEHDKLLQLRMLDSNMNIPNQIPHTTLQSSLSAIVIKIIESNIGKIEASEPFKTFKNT
Description: co-IP; PA-Mms22 captured on IgG-coupled Dynabeads from extracts of yeast cells in G1 or S-phase, with or without 0.03% MMS; Tris-acetate pH 9.0 acetate-salt buffer, Benzonase-digested extract, 2 h at 4°C; immunoblotting. In general terms: Immunoblotting shows a protein as a band on a membrane.

For test [2], the target named is T1, PA-tagged Mms22 (S. cerevisiae). Description: co-IP; as a2, but PA-Mms22 purified from extracts of ctf4Δ cells in G1 or S-phase; immunoblotting.

No constants are given. Whether binding was seen depends on the method and setting. In cells and extracts the contact can be indirect. Some binding calls cover weakened binding; strength is not graded here. Where a sequence is shown, tags or fusion partners need not be part of it.

With “FACT complex (Spt16, Pob3) (from UniProt P32558 1-1035; Q04636 1-552)”, the binding result in test [1] and in test [2] was “binds” each time.

B1: Ctf4 (protein, UniProt Q01454 1-927)
chain: MVSVIDKLVFDFGGKTLVSLAPDNNTLCVANKNGLTKILKTNNPEEEPETLDSSKLVSSIKCYSNSHFLMTTMQGDALRYNIDSSQEELLARFALPLRDCCVIHSGKMAVFGGDDLELILLELDDETHKKHAIKIDEQVSQISYNSQMNILAVSMINGKVQIFSLTSTIPNKVHELNDYIVANSYDDTHRDKILSNMMDDIDKDNDNDLSETADPDENNVADPEFCAANRICTRVAWHPKGLHFALPCADDTVKIFSIKGYSLQKTLSTNLSSTKAHFIDLQFDPLRGTYIAAVDLNNKLTVWNWETSEIHYTREFKRKITNIAWKIQADSKTLDLVLGTWSGSIAIVQNLAESVVSNIPDQSVAESSTKHGLFVDSESDLENLEGNDDINKSDKLFSDITQEANAEDVFTQTHDGPSGLSEKRKYNFEDEEDFIDDDDGAGYISGKKPHNEHSYSRVHKTHSFPISLANTGKFRYMPFSPAGTPFGFTDRRYLTMNEVGYVSTVKNSEQYSITVSFFDVGRFREYHFEDLFGYDLCFLNEKGTLFGQSKTGQIQYRPHDSIHSNWTKIIPLQAGERITSVAATPVRVIVGTSLGYFRSFNQFGVPFAVEKTSPIVALTAQNYRVFSVHYSQFHGLSYSLSELGTSSKRYYKRECPLPMSLPNINSDMKKDANLDYYNFNPMGIKSLFFSSYGDPCIFGSDNTLLLLSKWRSPEESKWLPILDSNMEIWKMSGGKETTDIHVWPLALAYDTLNCILVKGKHIWPEFPLPLPSEMEIRMPVFVKSKLLEENKAILNKKNEIGADTEAEEGEEDKEIQIPVSMAAEEEYLRSKVLSELLTDTLENDGEMYGNENEVLAALNGAYDKALLRLFASACSDQNVEKALSLAHELKQDRALTAAVKISERAELPSLVKKINNIREARYEQQLK
In the case of B1, in test [1], the binding result is listed as “binds”.

B2: Ctf4-ΔNT (amino acids 461–927) (domain or fragment, UniProt Q01454 461-927)
chain: THSFPISLANTGKFRYMPFSPAGTPFGFTDRRYLTMNEVGYVSTVKNSEQYSITVSFFDVGRFREYHFEDLFGYDLCFLNEKGTLFGQSKTGQIQYRPHDSIHSNWTKIIPLQAGERITSVAATPVRVIVGTSLGYFRSFNQFGVPFAVEKTSPIVALTAQNYRVFSVHYSQFHGLSYSLSELGTSSKRYYKRECPLPMSLPNINSDMKKDANLDYYNFNPMGIKSLFFSSYGDPCIFGSDNTLLLLSKWRSPEESKWLPILDSNMEIWKMSGGKETTDIHVWPLALAYDTLNCILVKGKHIWPEFPLPLPSEMEIRMPVFVKSKLLEENKAILNKKNEIGADTEAEEGEEDKEIQIPVSMAAEEEYLRSKVLSELLTDTLENDGEMYGNENEVLAALNGAYDKALLRLFASACSDQNVEKALSLAHELKQDRALTAAVKISERAELPSLVKKINNIREARYEQQLK
Consider B2, for which the binding result in test [1] is “no binding”.
